Assay results as given in doi:10.1101/2020.07.20.211417.
Residue numbers refer to the chain shown, from its start. These are yes or no findings as the source states them, for the method shown. Binding seen in cells or lysates may run through a third protein. A yes stands for co-enrichment or nearness to the bait. Other partners may have been found. Values belong to the molecule of their own block, whether it stands above or below them.

Sequences of proteins named here, by UniProt entry; tags and fusion partners are left off. Residues count along the entry.
UniProt O00459: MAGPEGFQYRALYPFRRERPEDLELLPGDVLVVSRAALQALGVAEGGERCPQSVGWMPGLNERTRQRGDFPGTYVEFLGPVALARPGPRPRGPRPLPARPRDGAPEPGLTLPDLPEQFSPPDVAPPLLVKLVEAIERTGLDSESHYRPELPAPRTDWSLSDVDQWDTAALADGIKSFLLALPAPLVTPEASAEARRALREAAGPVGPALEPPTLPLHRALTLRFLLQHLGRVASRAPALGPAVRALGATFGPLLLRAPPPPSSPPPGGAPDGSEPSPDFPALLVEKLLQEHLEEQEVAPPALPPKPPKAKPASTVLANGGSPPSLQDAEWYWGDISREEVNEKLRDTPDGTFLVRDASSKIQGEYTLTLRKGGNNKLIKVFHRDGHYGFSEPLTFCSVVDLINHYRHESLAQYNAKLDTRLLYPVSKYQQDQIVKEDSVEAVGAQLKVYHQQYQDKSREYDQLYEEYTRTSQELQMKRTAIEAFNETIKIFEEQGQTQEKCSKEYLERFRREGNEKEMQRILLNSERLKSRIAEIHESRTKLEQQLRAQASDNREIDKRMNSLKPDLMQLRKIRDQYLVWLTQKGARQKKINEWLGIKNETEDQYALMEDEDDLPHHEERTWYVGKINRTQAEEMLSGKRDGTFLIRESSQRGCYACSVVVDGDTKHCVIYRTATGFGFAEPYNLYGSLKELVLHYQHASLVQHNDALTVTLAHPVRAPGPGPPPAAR
UniProt O75348: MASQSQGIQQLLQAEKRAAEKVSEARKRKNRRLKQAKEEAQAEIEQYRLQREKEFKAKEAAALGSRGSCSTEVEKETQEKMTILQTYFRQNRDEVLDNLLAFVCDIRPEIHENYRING
UniProt P55854, residues 1-92: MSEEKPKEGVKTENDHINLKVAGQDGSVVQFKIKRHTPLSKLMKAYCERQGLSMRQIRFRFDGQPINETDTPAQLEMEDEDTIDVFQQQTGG
UniProt A2AJT9: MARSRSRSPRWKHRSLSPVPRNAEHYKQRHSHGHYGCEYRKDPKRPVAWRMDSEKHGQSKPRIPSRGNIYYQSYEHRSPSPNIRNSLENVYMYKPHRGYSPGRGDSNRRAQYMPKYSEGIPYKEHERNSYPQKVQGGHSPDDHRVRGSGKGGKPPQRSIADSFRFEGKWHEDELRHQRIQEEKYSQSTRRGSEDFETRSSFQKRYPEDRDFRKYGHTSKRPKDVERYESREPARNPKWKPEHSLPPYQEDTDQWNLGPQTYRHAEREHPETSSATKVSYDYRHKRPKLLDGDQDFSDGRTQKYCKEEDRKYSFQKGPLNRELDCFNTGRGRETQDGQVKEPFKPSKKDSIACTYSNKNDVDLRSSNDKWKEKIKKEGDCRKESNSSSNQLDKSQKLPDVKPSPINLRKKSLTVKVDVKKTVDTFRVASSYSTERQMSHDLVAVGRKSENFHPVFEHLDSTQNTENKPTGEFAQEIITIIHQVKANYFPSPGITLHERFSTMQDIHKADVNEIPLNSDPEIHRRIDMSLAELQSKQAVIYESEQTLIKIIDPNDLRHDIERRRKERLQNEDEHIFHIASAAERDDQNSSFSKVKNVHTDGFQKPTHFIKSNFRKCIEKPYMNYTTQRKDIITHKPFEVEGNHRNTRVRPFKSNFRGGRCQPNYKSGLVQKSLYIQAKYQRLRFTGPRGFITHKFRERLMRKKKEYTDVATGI

Columns and labels:
Test in all cases: proximity labelling
IRS4 (WT)-PafA = biological target: T1, IRS4 (WT)-PafA (UniProt O14654)
T1 sequence: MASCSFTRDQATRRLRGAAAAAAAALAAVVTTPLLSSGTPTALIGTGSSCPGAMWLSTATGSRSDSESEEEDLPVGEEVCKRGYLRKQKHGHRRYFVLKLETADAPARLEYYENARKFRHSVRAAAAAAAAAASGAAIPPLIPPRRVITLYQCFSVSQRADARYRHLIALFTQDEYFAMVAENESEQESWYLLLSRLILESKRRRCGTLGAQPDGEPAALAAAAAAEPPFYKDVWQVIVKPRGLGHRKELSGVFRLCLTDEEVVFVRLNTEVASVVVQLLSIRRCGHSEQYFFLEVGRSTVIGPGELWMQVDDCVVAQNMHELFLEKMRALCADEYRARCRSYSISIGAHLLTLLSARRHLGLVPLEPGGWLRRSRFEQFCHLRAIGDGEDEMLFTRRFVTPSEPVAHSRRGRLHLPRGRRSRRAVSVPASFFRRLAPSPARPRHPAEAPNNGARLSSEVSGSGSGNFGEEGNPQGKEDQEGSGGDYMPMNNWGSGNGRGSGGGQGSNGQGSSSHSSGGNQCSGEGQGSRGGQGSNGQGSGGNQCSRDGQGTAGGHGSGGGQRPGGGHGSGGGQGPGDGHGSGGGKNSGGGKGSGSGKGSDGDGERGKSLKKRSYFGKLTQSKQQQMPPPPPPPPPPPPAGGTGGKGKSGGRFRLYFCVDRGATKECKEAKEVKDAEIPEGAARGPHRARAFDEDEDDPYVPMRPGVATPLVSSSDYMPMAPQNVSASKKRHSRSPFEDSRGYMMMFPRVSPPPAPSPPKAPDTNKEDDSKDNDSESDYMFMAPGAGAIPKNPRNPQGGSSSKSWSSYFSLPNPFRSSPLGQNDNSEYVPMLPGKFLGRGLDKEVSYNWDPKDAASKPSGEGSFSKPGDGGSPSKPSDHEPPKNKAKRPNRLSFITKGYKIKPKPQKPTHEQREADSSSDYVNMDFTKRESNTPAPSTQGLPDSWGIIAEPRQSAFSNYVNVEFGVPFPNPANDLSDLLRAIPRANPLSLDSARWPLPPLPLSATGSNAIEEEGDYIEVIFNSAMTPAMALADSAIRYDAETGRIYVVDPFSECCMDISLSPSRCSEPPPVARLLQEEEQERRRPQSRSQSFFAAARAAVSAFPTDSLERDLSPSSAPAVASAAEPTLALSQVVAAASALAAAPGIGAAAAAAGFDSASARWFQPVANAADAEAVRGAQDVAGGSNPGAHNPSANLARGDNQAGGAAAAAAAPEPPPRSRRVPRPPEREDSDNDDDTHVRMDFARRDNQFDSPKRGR

IRS4 (Y847F)-PafA = biological target: T2, IRS4 (Y847F)-PafA (UniProt O14654)
T2 sequence: T1 sequence with Y847F

IRS4 (Y921F)-PafA = biological target: T3, IRS4 (Y921F)-PafA (UniProt O14654)
T3 sequence: T1 sequence with Y921F

IRS4 (Y779F)-PafA = biological target: T4, IRS4 (Y779F)-PafA (UniProt O14654)
T4 sequence: T1 sequence with Y779F

binding (IRS4 (WT)-PafA): binds
Molecule: PIK3R2/p85β, the regulatory subunit of PI-3K (from UniProt O00459 1-728)

binding (IRS4 (WT)-PafA): binds
Molecule: ATP6V1G1 (from UniProt O75348 1-118)

The remaining lines, values behind:

Molecule: SUMO3 (from UniProt P55854 1-92)
binding (IRS4 (WT)-PafA): binds

Molecule: CXorf23 (from UniProt A2AJT9 1-711)
binding (IRS4 (WT)-PafA): binds

B1: C18orf25 (protein, UniProt Q96B23 1-404)
chain: MKMEEAVGKVEELIESEAPPKASEQETAKEEDGSVELESQVQKDGVADSTVISSMPCLLMELRRDSSESQLASTESDKPTTGRVYESDSSNHCMLSPSSSGHLADSDTLSSAEENEPSQAETAVEGDPSGVSGATVGRKSRRSRSESETSTMAAKKNRQSSDKQNGRVAKVKGHRSQKHKERIRLLRQKREAAARKKYNLLQDSSTSDSDLTCDSSTSSSDDDEEVSGSSKTITAEIPDGPPVVAHYDMSDTNSDPEVVNVDNLLAAAVVQEHSNSVGGQDTGATWRTSGLLEELNAEAGHLDPGFLASDKTSAGNAPLNEEINIASSDSEVEIVGVQEHARCVHPRGGVIQSVSSWKHGSGTQYVSTRQTQSWTAVTPQQTWASPAEVVDLTLDEDSRRKYLL
binding (IRS4 (WT)-PafA): binds

B2: EBNA1 Binding Protein 2 (EBNA1BP2) (protein, UniProt Q99848 1-306)
chain: MDTPPLSDSESESDESLVTDRELQDAFSRGLLKPGLNVVLEGPKKAVNDVNGLKQCLAEFKRDLEWVERLDVTLGPVPEIGGSEAPAPQNKDQKAVDPEDDFQREMSFYRQAQAAVLAVLPRLHQLKVPTKRPTDYFAEMAKSDLQMQKIRQKLQTKQAAMERSEKAKQLRALRKYGKKVQTEVLQKRQQEKAHMMNAIKKYQKGFSDKLDFLEGDQKPLAQRKKAGAKGQQMRKGPSAKRRYKNQKFGFGGKKKGSKWNTRESYDDVSSFRAKTAHGRGLKRPGKKGSNKRPGKRTREKMKNRTH
binding (IRS4 (WT)-PafA): binds
binding (IRS4 (Y847F)-PafA): binds
binding (IRS4 (Y921F)-PafA): binds
binding (IRS4 (Y779F)-PafA): binds
